Test results reported in PMC7242910.
Results are given in words; binding and its absence hold for the method and conditions named. In cells and extracts the contact can be indirect. Some entries that bind do so weakly or less than the wild type.

Chains of the proteins cited; added tags and fusions are not shown. Lines headed by an entry give the natural chain unless they say otherwise; changes in a name come on top.
UniProt P21951: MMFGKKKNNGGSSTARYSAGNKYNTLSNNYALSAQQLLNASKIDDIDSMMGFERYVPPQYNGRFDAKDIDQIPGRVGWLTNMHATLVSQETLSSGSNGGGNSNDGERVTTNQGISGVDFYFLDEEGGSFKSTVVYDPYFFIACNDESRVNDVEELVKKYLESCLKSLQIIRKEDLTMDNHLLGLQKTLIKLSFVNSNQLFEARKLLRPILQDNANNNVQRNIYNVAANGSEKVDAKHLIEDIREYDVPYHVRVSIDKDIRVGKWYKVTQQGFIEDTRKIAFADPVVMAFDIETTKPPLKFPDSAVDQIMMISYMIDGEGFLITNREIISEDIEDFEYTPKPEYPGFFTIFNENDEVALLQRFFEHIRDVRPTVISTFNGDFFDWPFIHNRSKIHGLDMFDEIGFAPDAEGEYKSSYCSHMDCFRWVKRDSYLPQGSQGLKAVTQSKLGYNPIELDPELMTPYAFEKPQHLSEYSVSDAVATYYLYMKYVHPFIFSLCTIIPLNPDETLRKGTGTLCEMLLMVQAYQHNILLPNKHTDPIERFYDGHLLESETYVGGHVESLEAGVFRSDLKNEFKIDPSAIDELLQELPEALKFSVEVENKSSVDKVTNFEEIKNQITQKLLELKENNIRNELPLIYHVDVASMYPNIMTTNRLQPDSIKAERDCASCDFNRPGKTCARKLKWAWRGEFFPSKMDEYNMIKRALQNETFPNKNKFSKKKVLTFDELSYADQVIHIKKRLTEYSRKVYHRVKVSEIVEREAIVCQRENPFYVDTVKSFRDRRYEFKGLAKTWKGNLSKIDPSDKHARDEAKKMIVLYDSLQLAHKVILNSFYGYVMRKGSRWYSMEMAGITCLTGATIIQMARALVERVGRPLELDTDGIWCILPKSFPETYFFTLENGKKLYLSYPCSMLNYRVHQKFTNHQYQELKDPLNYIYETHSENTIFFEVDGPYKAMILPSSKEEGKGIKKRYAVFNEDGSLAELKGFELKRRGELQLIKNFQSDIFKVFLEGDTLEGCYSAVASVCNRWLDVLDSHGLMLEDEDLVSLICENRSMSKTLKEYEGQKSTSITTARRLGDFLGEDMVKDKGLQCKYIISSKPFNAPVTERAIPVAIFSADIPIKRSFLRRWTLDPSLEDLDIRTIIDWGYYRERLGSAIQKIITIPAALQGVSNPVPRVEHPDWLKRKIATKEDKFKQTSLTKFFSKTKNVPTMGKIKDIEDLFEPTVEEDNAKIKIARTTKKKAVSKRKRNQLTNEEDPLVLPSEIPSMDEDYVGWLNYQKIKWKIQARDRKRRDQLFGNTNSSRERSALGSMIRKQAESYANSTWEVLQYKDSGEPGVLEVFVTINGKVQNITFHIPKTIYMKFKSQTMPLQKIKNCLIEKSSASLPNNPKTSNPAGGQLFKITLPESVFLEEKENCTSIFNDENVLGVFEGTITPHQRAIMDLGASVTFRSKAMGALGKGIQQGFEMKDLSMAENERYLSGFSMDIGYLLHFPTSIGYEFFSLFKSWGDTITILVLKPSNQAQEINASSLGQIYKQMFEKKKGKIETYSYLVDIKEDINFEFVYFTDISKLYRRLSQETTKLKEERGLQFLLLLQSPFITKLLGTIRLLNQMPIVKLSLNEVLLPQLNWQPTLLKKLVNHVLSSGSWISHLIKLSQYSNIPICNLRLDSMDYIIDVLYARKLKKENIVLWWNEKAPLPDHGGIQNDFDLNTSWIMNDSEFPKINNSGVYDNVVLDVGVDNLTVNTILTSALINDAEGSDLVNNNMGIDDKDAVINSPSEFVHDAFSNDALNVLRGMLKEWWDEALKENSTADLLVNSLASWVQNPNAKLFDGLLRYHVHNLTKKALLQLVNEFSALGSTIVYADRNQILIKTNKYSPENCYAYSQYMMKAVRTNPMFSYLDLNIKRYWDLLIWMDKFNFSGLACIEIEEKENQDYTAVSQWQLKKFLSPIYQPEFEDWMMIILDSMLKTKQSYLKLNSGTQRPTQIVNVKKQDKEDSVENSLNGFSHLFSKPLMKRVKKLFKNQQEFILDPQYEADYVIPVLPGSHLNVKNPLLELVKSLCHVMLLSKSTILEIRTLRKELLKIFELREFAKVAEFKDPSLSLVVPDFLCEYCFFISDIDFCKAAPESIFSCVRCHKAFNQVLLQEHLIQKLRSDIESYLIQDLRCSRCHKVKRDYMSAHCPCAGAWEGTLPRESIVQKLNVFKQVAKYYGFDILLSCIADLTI
UniProt P49956: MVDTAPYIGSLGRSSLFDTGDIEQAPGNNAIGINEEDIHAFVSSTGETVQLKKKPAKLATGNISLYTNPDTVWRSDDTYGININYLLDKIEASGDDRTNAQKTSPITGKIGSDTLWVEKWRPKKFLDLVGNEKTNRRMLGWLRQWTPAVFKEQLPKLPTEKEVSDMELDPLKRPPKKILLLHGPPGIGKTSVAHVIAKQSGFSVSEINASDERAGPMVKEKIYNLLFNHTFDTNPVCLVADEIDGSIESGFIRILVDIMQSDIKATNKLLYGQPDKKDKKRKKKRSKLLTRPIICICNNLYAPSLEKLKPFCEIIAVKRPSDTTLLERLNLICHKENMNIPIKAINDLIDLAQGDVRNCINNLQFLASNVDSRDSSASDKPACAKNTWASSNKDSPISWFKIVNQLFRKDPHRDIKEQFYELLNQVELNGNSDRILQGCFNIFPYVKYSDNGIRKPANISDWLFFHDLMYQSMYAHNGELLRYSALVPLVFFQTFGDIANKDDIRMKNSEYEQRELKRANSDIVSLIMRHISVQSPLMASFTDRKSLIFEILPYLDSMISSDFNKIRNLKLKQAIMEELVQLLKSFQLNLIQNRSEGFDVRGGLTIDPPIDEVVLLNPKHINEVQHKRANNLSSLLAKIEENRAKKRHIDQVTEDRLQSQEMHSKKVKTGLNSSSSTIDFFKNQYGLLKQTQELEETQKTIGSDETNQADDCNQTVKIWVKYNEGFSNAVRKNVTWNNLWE

Target: Pol2, large subunit of DNA polymerase ε (S. cerevisiae) (UniProt P21951)
Assay: co-IP; yeast cell extracts in 50 mM Tris-HCl pH 7.5, 150 mM NaCl, 0.1% Triton X-100, protease inhibitors and benzonase; IgG coated Dynabeads (Protein A pulldown) or Protein A Dynabeads with epitope-specific antibody

binding: binds
Substance: Ctf18-RFC complex (from UniProt P49956 1-741; P38877 1-133; P25559 1-380; P40348 1-353; P38629 1-340; P40339 1-323; P38251 1-354)
